For at least one compound, name, drawing or mass did not settle the structure.
Tested on: 4E-BP1 (S65 phosphorylation; mTOR-mediated site)
Assay type: cell-based, human
Details: summary: S6K1 T389 and 4E-BP1 S65 in insulin-stimulated HEK293
Procedure: Transfections were carried out essentially as described by Manteuffel et al., 1997, Mol Cell. Biol. 17, 5426 with the 4EBP-1 construct described therein. The expression and phosphorylation of transiently-transfected HA-4E-BP1 was measured using a polyclonal anti-HA antibody and phosphospecific antibody against S65, respectively, essentially as described above (Pullen et al., 1998). The anti-HA antibody was obtained from a commercial source (Santa Cruz Biotechnology, Inc). The mTOR-mediated phosphorylation site in 4E-BP1 is S65.

O=[N+]([O-])c1ccc(O)c([N+](=O)[O-])c1 [dinitrophenol]
inhibition of phosphorylation of mTOR targets (summary of Example 1): able to inhibit phosphorylation of mTOR targets

— patent US20050004068A1, “Modulation of tor” (priority 2001, published 2005)
